PubChem BioAssay AID504793 | Drosophila RNAi Screening Center – 2011

- Assay: 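Genes required for cells to halt at G2/M after double-strand DNA breaks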 (primary screen)
- System: Drosophila S2R+ cells
- Knock-down reagent: long dsRNA against Drosophila genes, about 0.25 µg dsRNA per well
- Time to read-out: 4 days of dsRNA, then 4 hours of drug before read-out
- Treatment: doxorubicin 0.5 µM for 4 hours to cause double-strand breaks, in cells also given a low, harmless dose of dsRNA against nbs to sensitise the assay
- Detection: 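Per-well count of mitotic cells stained for phospho-histone H3 after doxorubicin exposure, used as mitotic index; counts are raw and not normalised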
- Direction: mitotic cells: higher = more cells in mitosis, weaker G2 arrest
- Call rule: 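Genes are called active only when high mitotic counts were reproduced with independent dsRNAs and mitosis was checked for delay without damage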
- Meaning of the calls: active = confirmed in follow-up tests; inactive = not confirmed
In all, the deposit lists about 23,000 reagents; this is a random part of those with a known target gene and a result. Of all reagents, 62 (0.27%) are marked active. 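Calls come from follow-up tests whose scores are not deposited, so confirmed genes may have low counts here; counts are not normalised per plate.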 Raw values are not corrected between plates. A plus sign joins genes that one reagent is predicted to hit.

gene	dsRNA	mitotic cells, replicate 1	mitotic cells, replicate 2	activity call
SLC5A11	DRSC03088	3		inactive
CG9586	DRSC03270	5		inactive
CG9586	DRSC30001	10		inactive
CG7295	DRSC00699	4		inactive
Arl6	DRSC07031	2		inactive
CG15071	DRSC06504	5		inactive
CG15071	DRSC28329	3		inactive
PIG-F	DRSC11069	4		inactive
PIG-F	DRSC27027	5		inactive
bcd + CR14578	DRSC20984	5		inactive
CG42733	DRSC25375	5		inactive
mip40	DRSC06541	5		inactive
CG42663	DRSC06158	8		inactive
CG42663	DRSC06404	9	5	inactive
CG42663	DRSC23788	6		inactive
Plap	DRSC00678	10		inactive
Ir48a	DRSC05301	3		inactive
Spn28Db	DRSC22033	9		inactive
Pura	DRSC08891	6		inactive
Pura	DRSC10862	6		inactive
Pura	DRSC10864	6		inactive
Pura	DRSC10865	3		inactive
Pura	DRSC10866	4		inactive
Pura	DRSC26606	8		inactive
CG31787	DRSC01632	7		inactive
Hsp60A	DRSC20254	6		inactive
CG16863	DRSC01892	4		inactive
wisp	DRSC23092	10		inactive
wisp	DRSC25917	7		inactive
CG42514	DRSC10428	4		inactive
lobo	DRSC14662	15		inactive
lobo	DRSC14663	7		inactive
lobo	DRSC29681	7		inactive
eIF4E6	DRSC14853	7		inactive
eIF4E6	DRSC25760	2		inactive
Cyt-c-d	DRSC03309	8		inactive
Cyt-c-d	DRSC30051	7		inactive
CG17287	DRSC06659	12		inactive
CG3823	DRSC18325	8		inactive
CG3823	DRSC26025	11		inactive
sxe2	DRSC15692	6		inactive
Sgs7	DRSC11281	6		inactive
ND-75	DRSC18686	9		inactive
Fad2	DRSC11165	8		inactive
Fad2	DRSC23579	9		inactive
Irk2	DRSC15569	4		inactive
CG10347	DRSC19352	6		inactive
zpg	DRSC09702	12		inactive
zpg	DRSC26258	5		inactive
Acp24A4	DRSC22352	13		inactive
Qsox2	DRSC15287	4		inactive
Qsox2	DRSC26634	3		inactive
Doc2	DRSC22716	10		inactive
Doc2	DRSC25293	5		inactive
CG8237	DRSC07119	7		inactive
CG8237	DRSC26686	5		inactive
Ipk2	DRSC00357	4		inactive
Ipk2	DRSC24511	7		inactive
Aatf	DRSC02131	10		inactive
Aatf	DRSC29405	5		inactive
CG4287	DRSC15559	11		inactive
CG4287	DRSC26372	3		inactive

Continued; the last 8 above are carried over.
gene	dsRNA	mitotic cells, replicate 1	mitotic cells, replicate 2	activity call
CG8237	DRSC07119	7		inactive
CG8237	DRSC26686	5		inactive
Ipk2	DRSC00357	4		inactive
Ipk2	DRSC24511	7		inactive
Aatf	DRSC02131	10		inactive
Aatf	DRSC29405	5		inactive
CG4287	DRSC15559	11		inactive
CG4287	DRSC26372	3		inactive
IntS11	DRSC15407	14		inactive
IntS11	DRSC26912	7		inactive
Tbca	DRSC15395	9		inactive
Tbca	DRSC29064	3		inactive
CG12729	DRSC17884	9		inactive
CG12729	DRSC27092	6		inactive
Cp7Fb	DRSC18034	14		inactive
CG15734	DRSC19701	16		inactive
ocm	DRSC04360	24		inactive
ocm	DRSC26248	11		inactive
CG5768	DRSC15870	9		inactive
dve	DRSC04680	4		inactive
dve	DRSC28692	6		inactive
Vps51	DRSC06519	4		inactive
Tim8	DRSC20291	11		inactive
nopo	DRSC06918	4		inactive
Mvk + CG33672 + spt4	DRSC05356	7		inactive
Mvk + CG33672 + spt4	DRSC06628	16		inactive
sll	DRSC16271	3		inactive
sll	DRSC29864	6		inactive
CG2061	DRSC19348	4		inactive
CR33317	DRSC02653	8		inactive
CG7326	DRSC20037	4		inactive
Usf	DRSC18129	18		inactive
Usf	DRSC23749	1		inactive
CG12464	DRSC06156	4		inactive
Ddr	DRSC02150	5		inactive
Ddr	DRSC03229	1	11	inactive
Ddr	DRSC03230	7		inactive
Ddr	DRSC22818	12		inactive
CG33287	DRSC22929	12		inactive
dac	DRSC03518	5		inactive
Ctu1	DRSC07069	11		inactive
grass	DRSC15911	12		inactive
CG17919	DRSC12571	4		inactive
CG17919	DRSC27860	6		inactive
Mbs	DRSC09414	6		inactive
Mbs	DRSC10525	7		inactive
Mbs	DRSC10553	2		inactive
Mbs	DRSC24459	3		inactive
ttm3	DRSC03736	7		inactive
CG5614	DRSC15845	3	8	inactive
CG43902	DRSC17999	15		inactive
CG43902	DRSC25064	5		inactive
CG8031	DRSC16364	4		inactive
CG5906	DRSC10557	2		inactive
Incenp	DRSC06116	6		inactive
Incenp	DRSC21950	7		inactive
Incenp	DRSC28036			inactive
